Where two headings read alike, the source gives them in different places. No constants are given. Whether binding was seen depends on the method and setting. Binding seen in cells or lysates may run through a third protein. These calls come from enrichment with a bait or labelling near it, and not all partners need be listed. For some assays here: No binding means not detected with the bait. One block for each molecule: values may come before it.
Key:
Test in all cases: affinity purification with mass spectrometry; antibody-based affinity co-IP with limited cross-linking from transgenic G. lamblia trophozoites expressing the epitope-tagged full-length bait; protein input 0.8 mg/ml total protein; gel lanes analysed by MS; hits filtered against a control co-IP from non-transgenic wild-type parasites (Scaffold4; high stringency 95_2_95, low stringency 95_2_50, FDR 0%)
[1] = target: GlPXD3 (GL50803_16596), epitope-tagged full-length reporter (Giardia lamblia) (UniProt A8B341)
[2] = target: GlFYVE (GL50803_16653), epitope-tagged full-length reporter (Giardia lamblia) (UniProt A8BDZ8)
[3] = target: GlPXD2 (GL50803_16595), epitope-tagged full-length reporter (Giardia lamblia) (UniProt A8B344)
[4] = target: GlNECAP1 (GL50803_17195), epitope-tagged full-length reporter (Giardia lamblia) (UniProt A8BII4)
[5] = target: GlPXD1 (GL50803_7723), epitope-tagged full-length reporter (Giardia lamblia) (UniProt A8B343)
[6] = target: GlPXD4 (GL50803_42357), epitope-tagged full-length reporter (Giardia lamblia) (UniProt A8B322)
[7] = target: GlPXD6 (GL50803_24488), epitope-tagged full-length reporter (Giardia lamblia) (UniProt D3KH98)
[8] = target: GlNECAP1 (GL50803_17195), epitope-tagged full-length reporter (Giardia lamblia) (UniProt A8BII4); remark: listed apart in the source
[9] = target: GlFYVE (GL50803_16653), epitope-tagged full-length reporter (Giardia lamblia) (UniProt A8BDZ8); remark: listed apart in the source
[10] = target: GlPXD1 (GL50803_7723), epitope-tagged full-length reporter (Giardia lamblia) (UniProt A8B343); remark: listed apart in the source
[11] = target: GlPXD2 (GL50803_16595), epitope-tagged full-length reporter (Giardia lamblia) (UniProt A8B344); remark: listed apart in the source
[12] = target: GlPXD4 (GL50803_42357), epitope-tagged full-length reporter (Giardia lamblia) (UniProt A8B322); remark: listed apart in the source
[13] = target: GlPXD3 (GL50803_16596), epitope-tagged full-length reporter (Giardia lamblia) (UniProt A8B341); remark: listed apart in the source
[14] = target: GlPXD6 (GL50803_24488), epitope-tagged full-length reporter (Giardia lamblia) (UniProt D3KH98); remark: listed apart in the source

Sequences of proteins named here, by UniProt entry; tags and fusion partners are left off. A change or cut given only in a name is not applied to a line headed by its entry.
UniProt A8B341: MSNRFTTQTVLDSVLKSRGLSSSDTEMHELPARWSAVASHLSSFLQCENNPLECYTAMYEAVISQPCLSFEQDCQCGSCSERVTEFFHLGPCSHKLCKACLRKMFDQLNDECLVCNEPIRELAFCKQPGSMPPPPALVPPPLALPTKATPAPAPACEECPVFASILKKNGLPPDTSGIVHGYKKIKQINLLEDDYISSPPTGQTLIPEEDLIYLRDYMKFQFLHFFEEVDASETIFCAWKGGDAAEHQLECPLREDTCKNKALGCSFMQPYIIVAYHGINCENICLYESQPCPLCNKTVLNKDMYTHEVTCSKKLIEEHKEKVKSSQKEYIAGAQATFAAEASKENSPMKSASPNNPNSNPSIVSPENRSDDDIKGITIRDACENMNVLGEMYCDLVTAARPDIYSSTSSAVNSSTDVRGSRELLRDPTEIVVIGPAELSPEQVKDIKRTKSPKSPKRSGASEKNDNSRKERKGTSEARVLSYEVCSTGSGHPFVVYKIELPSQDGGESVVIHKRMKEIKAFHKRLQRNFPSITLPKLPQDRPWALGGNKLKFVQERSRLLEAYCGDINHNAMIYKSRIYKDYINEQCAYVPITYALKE
UniProt A8BII4: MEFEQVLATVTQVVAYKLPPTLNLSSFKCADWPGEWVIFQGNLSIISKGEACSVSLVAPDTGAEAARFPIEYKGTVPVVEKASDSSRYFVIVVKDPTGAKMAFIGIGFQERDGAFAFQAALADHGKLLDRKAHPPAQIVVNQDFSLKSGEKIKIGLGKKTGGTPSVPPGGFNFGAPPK
UniProt A8B343: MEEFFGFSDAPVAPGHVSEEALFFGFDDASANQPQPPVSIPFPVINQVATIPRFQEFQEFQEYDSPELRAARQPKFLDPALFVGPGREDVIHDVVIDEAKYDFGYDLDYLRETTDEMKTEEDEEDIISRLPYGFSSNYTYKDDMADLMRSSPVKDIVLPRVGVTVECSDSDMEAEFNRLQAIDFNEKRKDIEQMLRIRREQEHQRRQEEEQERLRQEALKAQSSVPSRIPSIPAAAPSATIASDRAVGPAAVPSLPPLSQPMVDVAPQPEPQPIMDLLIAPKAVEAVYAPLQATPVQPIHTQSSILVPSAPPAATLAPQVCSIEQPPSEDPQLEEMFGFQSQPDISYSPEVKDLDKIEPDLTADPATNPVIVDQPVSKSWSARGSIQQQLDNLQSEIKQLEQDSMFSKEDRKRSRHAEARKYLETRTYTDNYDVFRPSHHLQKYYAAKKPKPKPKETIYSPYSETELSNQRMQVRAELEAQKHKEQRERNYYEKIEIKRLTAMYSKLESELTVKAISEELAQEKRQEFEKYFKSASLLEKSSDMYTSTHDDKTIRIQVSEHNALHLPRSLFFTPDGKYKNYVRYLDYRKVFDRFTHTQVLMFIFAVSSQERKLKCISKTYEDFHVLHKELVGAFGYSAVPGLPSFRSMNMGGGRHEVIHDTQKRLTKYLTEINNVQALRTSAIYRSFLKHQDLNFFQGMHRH
UniProt D3KH98: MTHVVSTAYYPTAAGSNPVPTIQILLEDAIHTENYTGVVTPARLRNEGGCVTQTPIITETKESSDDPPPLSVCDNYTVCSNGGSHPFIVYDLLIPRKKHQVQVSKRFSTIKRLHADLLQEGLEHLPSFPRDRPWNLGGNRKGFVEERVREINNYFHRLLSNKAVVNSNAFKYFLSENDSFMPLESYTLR
UniProt A8BDY5: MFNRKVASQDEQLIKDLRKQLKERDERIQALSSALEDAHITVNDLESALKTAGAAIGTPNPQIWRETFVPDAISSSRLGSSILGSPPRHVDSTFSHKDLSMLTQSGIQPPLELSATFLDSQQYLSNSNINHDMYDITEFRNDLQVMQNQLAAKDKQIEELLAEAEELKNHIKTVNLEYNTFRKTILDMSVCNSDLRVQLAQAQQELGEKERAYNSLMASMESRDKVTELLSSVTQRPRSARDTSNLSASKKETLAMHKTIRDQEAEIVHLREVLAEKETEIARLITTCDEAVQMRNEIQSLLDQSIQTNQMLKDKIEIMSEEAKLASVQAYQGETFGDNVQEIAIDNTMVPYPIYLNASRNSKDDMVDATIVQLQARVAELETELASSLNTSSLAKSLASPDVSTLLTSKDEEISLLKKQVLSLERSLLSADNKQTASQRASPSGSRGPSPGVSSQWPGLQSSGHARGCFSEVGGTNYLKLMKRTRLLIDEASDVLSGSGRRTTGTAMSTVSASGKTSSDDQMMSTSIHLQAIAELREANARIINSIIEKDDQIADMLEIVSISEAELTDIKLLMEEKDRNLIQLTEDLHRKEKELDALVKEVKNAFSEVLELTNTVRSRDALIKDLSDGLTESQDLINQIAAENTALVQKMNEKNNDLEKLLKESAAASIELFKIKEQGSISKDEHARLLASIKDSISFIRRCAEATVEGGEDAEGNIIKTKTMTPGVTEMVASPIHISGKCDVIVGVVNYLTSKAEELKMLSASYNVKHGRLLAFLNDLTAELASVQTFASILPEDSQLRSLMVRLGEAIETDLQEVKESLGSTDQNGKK
UniProt A8B3S4: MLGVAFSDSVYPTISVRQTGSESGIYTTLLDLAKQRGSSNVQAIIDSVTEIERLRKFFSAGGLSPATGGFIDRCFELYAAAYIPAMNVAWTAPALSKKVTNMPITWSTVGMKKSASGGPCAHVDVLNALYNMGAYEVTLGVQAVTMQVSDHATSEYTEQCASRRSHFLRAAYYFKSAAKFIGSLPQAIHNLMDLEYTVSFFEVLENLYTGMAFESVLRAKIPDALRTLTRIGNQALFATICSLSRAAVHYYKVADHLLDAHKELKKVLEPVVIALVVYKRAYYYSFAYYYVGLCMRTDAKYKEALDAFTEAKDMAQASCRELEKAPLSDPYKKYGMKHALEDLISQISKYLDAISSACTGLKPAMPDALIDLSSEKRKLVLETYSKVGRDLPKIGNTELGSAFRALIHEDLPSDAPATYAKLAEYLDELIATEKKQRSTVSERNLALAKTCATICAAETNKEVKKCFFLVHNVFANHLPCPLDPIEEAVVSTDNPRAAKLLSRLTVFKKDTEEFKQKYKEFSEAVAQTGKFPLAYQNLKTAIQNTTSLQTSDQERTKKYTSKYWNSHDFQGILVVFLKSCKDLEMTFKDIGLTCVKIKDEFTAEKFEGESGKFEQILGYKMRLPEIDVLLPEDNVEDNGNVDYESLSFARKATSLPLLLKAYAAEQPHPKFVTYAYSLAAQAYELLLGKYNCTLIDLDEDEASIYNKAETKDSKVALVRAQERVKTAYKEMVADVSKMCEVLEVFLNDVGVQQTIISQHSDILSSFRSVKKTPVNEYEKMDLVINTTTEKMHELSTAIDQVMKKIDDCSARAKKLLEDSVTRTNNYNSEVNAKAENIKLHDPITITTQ
UniProt E2RTT5: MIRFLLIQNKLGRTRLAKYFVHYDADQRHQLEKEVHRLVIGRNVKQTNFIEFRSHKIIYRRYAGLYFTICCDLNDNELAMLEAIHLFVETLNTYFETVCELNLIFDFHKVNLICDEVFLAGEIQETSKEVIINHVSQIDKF
UniProt E2RTQ4: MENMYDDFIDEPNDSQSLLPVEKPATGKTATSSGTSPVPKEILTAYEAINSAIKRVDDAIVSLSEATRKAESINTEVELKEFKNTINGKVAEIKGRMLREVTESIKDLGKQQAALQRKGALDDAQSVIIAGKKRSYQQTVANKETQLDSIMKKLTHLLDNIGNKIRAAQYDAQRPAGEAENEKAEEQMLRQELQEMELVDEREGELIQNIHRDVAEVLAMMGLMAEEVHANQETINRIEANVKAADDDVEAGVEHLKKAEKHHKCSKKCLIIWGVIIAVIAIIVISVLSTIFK
UniProt A8BHA7: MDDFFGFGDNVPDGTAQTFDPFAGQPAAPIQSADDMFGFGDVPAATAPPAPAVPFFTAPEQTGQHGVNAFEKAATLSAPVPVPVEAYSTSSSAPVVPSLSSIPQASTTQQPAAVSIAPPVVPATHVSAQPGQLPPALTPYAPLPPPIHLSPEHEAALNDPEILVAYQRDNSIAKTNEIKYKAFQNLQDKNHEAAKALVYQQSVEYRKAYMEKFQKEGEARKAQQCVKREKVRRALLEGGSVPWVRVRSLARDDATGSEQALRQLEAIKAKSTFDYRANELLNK
UniProt A8B6P4: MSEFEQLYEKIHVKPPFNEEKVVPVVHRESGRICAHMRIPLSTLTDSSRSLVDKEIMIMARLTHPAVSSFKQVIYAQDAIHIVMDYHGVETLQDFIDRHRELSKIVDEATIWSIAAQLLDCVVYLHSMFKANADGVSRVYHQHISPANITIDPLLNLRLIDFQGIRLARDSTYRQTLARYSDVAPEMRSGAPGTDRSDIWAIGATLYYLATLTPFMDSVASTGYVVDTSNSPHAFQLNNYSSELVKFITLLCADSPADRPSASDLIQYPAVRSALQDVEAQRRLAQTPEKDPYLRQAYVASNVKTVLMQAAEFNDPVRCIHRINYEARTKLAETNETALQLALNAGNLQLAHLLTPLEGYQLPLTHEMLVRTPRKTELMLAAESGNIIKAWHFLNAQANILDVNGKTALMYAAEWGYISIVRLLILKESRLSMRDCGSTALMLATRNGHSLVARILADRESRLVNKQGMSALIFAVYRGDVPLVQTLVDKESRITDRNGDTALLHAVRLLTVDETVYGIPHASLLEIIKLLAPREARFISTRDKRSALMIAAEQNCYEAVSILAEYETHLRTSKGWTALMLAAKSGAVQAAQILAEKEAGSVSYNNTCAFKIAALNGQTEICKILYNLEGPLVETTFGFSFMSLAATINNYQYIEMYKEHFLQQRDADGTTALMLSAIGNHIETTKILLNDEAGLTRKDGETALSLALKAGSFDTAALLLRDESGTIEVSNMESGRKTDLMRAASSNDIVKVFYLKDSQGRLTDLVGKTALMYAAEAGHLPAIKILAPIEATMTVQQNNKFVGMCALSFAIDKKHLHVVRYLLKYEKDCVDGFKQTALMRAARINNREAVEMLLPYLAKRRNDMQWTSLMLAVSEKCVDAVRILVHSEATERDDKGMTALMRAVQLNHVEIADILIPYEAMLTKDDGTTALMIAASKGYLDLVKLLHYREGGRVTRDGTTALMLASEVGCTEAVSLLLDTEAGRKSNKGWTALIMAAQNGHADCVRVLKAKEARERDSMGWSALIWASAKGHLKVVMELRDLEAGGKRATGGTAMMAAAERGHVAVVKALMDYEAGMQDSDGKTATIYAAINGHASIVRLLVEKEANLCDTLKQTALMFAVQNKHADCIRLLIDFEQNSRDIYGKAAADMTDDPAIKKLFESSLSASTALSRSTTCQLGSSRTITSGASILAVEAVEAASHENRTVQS
UniProt A8BH24: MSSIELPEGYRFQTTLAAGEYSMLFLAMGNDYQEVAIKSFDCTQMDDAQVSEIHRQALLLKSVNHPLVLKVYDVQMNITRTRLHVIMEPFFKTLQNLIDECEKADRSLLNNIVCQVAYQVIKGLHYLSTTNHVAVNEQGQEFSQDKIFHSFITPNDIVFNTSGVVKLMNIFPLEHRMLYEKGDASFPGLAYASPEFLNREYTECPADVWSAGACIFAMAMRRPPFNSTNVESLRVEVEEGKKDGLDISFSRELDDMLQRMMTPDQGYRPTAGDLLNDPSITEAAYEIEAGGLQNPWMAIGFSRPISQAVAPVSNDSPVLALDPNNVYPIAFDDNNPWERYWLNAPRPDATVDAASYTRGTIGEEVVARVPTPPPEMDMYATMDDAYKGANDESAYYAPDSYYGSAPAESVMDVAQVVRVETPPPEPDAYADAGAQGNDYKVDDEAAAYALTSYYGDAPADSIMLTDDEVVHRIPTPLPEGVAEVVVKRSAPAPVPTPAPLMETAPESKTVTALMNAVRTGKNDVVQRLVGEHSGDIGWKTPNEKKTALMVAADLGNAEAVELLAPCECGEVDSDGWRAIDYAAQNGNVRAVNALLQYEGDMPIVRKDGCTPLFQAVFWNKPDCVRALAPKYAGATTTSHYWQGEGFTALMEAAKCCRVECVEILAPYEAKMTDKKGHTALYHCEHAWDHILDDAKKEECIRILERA
UniProt A8BKZ4: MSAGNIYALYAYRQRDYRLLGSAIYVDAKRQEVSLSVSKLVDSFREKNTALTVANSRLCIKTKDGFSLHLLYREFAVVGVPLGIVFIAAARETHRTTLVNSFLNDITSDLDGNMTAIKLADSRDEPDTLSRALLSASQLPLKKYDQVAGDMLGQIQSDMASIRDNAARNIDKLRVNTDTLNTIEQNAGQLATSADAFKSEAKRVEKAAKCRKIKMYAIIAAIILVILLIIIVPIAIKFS
UniProt A8B2J8: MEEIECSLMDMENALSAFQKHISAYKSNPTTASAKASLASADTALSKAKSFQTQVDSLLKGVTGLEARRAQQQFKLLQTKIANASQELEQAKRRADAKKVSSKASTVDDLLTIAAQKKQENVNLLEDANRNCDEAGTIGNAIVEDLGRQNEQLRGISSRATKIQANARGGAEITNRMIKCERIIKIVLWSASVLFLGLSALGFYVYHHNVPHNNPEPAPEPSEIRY

Molecule: GL50803_16811 (Gl16811), tentatively annotated as a ZipA protein (from UniProt A8BDY5)
binding [1]: binds

Molecule: GlPXD2 (GL50803_16595), epitope-tagged full-length reporter (from UniProt A8B344)
binding [4]: binds
binding [5]: binds weakly
binding [6]: binds weakly
binding [7]: binds

Molecule: GlNSF (GL50803_114776) (from UniProt A0A644F2H1)
binding [1]: binds

Molecule: Gl16717, StAR-related lipid-transfer protein (from UniProt A8BE80)
binding [1]: binds
binding [7]: binds

Molecule: GlAP2-β (from UniProt A8B9U8)
binding [4]: binds
binding [5]: binds
binding [3]: binds
binding [6]: binds weakly
binding [1]: binds
binding [7]: binds

Molecule: Gl9605, dynamin-like protein (from UniProt A0A644F0H9)
binding [1]: binds weakly

Molecule: GlPXD3 (GL50803_16596), epitope-tagged full-length reporter (from UniProt A8B341)
binding [7]: binds weakly

Molecule: Glepsin (GL50803_3256) (from UniProt A8BIK9)
binding [4]: no binding
binding [2]: no binding
binding [5]: no binding
binding [3]: no binding
binding [6]: no binding
binding [1]: no binding
binding [7]: no binding

Molecule: GlAP2-α (from UniProt A8BAR6)
binding [4]: binds
binding [5]: binds weakly
binding [3]: binds
binding [1]: binds

B1: G. lamblia dynamin-like protein GlDRP (protein, UniProt E2RU04 1-732)
chain: MSQIDKLIPIVNSLQDVFSAIGQDKTNIDLPQITVVGSQSAGKSSVLEAVCGRDVLPRSAGICTRRPLILQLIPTKPGQFVKDEKGKTYEEWGEFLHTKDKKFVHYQEICKEIVAETDRVTGGTLNVSPLPIRLKLFSPTVVPLTLVDLPGLVKNALPGQPADIDVQIKKCVYEYIQKPNAVILAVSAANADLATSDALQAAINCDPKGDRSVGVLTKIDIVDKGTEATVVSILRNEVHYFKLGWIAVMNRSQKDIDAQKTIAKHLHDEEEFFRTHDYYKPLAAQSGAKYLARRLNQVLINHIQIVLPDLKMKVHLQLDKYSRELASYGQHLEGRAEMERALLGLISSYEKEYKAILDGSSAGASKNELYGGARISYIFQSVLPKMFDTISIQEILNGEDVRTLIRNSSGTRSSLFLSESAFELLVQKVVRRLEGPCKHCLQLVKAELISIAKSIPTPEMKKYRRLCNELVNTCIKLINDLTMPTGKFLQDLIHSELCYINTLHPDFVASQEFKGHIDGQRNMANLDVSNQGFGESNFGGPGGPGMGGFPPGGPGGPGGPGGPGGPPGGPGMNRGPGGPPGAPGGPGGPMNRGPGGPGGPGGPGGPGPQQFNESVPEKIKAQGPLSEAEKLGVDLIPRLMSAYYRVIRKKIEDSVPKACIAFLVKASMNQLQEVLVRNLYSGDKIEDLLCEDPSIKEKRVACRELVDVMQRASNILDKIGNIRNVEDLAKKD
binding [8]: binds
binding [9]: binds
binding [10]: binds weakly
binding [11]: binds
binding [12]: binds
binding [13]: binds weakly
binding [14]: binds

Now from value to molecule:

binding [2]: binds
binding [3]: binds weakly
Molecule: GlNECAP1 (GL50803_17195), epitope-tagged full-length reporter (from UniProt A8BII4)

binding [1]: binds
Molecule: protein GL50803_103709 carrying a predicted N-terminal BRO domain (from UniProt A8B3S4)

binding [3]: binds
Molecule: predicted SNARE protein GL50803_10013 (from UniProt A8B2Y5)

binding [4]: binds
binding [2]: binds
binding [5]: binds
binding [3]: binds
binding [6]: binds
binding [1]: binds
binding [7]: binds
Molecule: G. lamblia clathrin heavy chain (GlCHC) (from UniProt A8B515)

binding [1]: binds
Molecule: GL50803_17060 (Gl17060), ankyrin-domain carrying protein (from UniProt A8B820)

binding [4]: binds
binding [5]: binds
binding [3]: binds
Molecule: GlAP2-μ (from UniProt E2RTN5)

binding [3]: binds
Molecule: GlAP2-σ (from UniProt E2RTT5)

binding [4]: binds
binding [7]: binds weakly
Molecule: GlFYVE (GL50803_16653), epitope-tagged full-length reporter (from UniProt A8BDZ8)

binding [2]: binds
Molecule: GlPXD6 (GL50803_24488), epitope-tagged full-length reporter (from UniProt D3KH98)

binding [1]: binds
Molecule: SNARE protein Gl7309 (from UniProt E2RTQ4)

binding [5]: binds
binding [3]: binds weakly
Molecule: G. lamblia putative clathrin light chain Gl4259 (GlCLC) (from UniProt A8BHA7)

binding [3]: binds weakly
Molecule: GlPXD4 (GL50803_42357), epitope-tagged full-length reporter (from UniProt A8B322)

binding [1]: binds
Molecule: GL50803_87677 (Gl87677), annotated as a NEK kinase (from UniProt A8B6P4)

binding [1]: binds
Molecule: Gl15411, pseudokinase (predicted inactive NEK kinase) (from UniProt A8BH24)

binding [3]: binds
Molecule: predicted SNARE protein GL50803_14469 (from UniProt A8BKZ4)

binding [3]: binds
binding [6]: binds
Molecule: putative SNARE protein GL50803_5785 (from UniProt A8B2J8)

From paper PMC7058353
